Our source for the binding values is article PMC10777984.

The chains behind the UniProt entries cited, without tags or fusion partners. Residues count along the entry.
UniProt Q13224, residues 27-1484: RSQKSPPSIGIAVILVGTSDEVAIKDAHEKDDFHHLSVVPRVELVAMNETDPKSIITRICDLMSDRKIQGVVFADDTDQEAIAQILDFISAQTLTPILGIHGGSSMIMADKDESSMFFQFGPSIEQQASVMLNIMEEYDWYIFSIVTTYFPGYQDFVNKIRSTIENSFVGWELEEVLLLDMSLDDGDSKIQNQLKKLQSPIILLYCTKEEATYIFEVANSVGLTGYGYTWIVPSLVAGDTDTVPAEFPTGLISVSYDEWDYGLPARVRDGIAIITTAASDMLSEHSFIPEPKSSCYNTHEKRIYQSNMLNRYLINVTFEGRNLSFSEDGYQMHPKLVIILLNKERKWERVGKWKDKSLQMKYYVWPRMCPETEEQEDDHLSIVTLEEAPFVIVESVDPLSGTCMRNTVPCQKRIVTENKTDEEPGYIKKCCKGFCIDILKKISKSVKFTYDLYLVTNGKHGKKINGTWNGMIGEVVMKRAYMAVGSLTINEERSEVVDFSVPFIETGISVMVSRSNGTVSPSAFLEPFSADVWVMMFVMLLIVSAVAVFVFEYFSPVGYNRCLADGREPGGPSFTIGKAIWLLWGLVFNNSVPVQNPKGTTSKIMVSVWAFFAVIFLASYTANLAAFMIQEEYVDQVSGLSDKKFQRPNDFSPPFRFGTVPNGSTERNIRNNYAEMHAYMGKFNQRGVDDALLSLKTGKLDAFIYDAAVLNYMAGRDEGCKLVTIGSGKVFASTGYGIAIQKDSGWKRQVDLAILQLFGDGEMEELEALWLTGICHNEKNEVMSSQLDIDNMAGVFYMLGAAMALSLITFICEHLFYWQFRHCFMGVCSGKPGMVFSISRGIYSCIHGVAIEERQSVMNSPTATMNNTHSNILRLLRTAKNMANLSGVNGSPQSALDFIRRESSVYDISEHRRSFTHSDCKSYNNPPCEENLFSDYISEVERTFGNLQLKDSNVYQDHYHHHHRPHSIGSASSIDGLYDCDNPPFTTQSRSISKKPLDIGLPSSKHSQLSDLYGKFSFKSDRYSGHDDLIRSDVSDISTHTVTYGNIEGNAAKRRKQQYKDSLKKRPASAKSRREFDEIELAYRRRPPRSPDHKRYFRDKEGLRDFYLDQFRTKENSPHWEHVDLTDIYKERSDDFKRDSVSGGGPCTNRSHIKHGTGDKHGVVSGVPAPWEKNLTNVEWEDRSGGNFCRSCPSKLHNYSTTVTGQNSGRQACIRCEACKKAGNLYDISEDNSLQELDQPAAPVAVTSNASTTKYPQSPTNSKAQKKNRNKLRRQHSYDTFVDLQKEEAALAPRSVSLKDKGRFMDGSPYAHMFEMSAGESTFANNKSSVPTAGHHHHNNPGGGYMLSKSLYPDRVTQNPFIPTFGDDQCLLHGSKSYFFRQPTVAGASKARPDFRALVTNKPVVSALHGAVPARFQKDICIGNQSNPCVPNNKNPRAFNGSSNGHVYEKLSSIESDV
UniProt P08581, residues 25-1390: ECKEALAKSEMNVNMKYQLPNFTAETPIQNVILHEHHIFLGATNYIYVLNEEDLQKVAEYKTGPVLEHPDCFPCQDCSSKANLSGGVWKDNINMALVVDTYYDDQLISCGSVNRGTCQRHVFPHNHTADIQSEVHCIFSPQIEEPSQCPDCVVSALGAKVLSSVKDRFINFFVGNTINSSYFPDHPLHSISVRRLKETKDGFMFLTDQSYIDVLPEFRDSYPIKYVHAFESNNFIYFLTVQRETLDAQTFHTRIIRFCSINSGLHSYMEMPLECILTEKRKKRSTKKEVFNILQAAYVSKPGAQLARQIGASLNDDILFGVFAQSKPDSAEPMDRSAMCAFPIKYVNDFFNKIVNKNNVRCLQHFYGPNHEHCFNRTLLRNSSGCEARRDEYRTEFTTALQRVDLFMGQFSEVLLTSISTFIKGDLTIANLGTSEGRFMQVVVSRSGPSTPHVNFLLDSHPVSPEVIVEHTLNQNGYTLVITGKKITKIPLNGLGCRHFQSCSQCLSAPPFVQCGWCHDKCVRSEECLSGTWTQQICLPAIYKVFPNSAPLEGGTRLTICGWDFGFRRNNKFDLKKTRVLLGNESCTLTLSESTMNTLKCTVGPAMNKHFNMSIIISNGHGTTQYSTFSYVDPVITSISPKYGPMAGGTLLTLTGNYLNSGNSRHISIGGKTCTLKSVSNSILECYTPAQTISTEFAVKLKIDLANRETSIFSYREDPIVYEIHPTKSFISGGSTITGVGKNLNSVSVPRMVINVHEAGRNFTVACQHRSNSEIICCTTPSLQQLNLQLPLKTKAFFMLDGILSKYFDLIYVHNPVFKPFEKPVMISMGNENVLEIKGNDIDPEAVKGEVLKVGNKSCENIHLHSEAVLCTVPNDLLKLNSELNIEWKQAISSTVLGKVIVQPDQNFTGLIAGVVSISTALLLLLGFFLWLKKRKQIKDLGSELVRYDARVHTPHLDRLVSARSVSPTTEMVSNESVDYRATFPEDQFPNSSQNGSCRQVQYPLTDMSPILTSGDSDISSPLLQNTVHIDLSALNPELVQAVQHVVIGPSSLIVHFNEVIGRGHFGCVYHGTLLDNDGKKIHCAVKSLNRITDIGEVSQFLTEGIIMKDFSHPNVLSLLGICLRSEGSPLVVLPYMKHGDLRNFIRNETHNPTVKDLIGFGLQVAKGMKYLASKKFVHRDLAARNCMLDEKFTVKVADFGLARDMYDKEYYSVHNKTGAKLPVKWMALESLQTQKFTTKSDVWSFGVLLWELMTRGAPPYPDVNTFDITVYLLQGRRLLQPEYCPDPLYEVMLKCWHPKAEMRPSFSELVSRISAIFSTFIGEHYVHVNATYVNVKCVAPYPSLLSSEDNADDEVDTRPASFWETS

The target in the assay is NMDAR2B with a Flag tag, uncleaved 160 kDa form, transfected in Hek293T cells (human (from the printed GenBank entry NM_000834.5)) (UniProt Q13224). The assay can be described thus: co-IP; Hek293T transfected 24 h with NMDAR2B-Flag and MET-His (wild type or kinase-dead), alone or together; RIPA lysate, IP with anti-Flag or anti-His Tag antibody and protein A sepharose; blots for C-terminal NMDAR2B and MET.

No constants are given. Whether binding was seen depends on the method and setting. In cells and extracts the contact can be indirect. Some binding calls cover weakened binding; strength is not graded here.

On to “MET wild type with a His tag, transfected in Hek293T cells (from UniProt P08581-1 25-1390) (receptor)”, for which the binding entry is reported as “binds”.
